The supplement of paper PMC6411743
± gives the standard deviation of the averaged measurements. The entries are a selection whose mix differs from that of the whole data set.

Chains of the proteins cited; added tags and fusions are not shown. Lines headed by an entry give the natural chain unless they say otherwise; changes in a name come on top.
UniProt Q8IYB3: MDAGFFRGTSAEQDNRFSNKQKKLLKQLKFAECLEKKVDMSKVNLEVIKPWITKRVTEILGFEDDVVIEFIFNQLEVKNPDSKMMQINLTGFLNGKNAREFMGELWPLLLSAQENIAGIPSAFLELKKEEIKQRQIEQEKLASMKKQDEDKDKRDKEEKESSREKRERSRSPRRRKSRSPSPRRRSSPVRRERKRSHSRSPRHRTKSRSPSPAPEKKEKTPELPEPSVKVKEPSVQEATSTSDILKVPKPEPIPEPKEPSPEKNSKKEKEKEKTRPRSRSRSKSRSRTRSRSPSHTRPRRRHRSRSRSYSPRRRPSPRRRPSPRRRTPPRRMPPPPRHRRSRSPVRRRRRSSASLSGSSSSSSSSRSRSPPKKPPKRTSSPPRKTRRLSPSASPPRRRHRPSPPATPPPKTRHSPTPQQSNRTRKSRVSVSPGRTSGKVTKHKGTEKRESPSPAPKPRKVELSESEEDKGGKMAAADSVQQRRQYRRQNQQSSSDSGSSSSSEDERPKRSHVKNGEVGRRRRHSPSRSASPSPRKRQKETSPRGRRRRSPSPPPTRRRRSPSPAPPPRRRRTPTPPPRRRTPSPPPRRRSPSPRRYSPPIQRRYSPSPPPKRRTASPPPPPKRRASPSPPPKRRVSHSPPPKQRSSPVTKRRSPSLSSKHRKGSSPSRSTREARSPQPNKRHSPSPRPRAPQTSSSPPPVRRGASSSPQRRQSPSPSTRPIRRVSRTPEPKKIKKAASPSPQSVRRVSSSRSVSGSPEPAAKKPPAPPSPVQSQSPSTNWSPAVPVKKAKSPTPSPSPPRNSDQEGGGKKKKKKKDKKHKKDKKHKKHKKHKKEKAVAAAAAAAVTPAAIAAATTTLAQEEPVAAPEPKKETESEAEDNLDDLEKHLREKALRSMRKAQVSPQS
UniProt P48444: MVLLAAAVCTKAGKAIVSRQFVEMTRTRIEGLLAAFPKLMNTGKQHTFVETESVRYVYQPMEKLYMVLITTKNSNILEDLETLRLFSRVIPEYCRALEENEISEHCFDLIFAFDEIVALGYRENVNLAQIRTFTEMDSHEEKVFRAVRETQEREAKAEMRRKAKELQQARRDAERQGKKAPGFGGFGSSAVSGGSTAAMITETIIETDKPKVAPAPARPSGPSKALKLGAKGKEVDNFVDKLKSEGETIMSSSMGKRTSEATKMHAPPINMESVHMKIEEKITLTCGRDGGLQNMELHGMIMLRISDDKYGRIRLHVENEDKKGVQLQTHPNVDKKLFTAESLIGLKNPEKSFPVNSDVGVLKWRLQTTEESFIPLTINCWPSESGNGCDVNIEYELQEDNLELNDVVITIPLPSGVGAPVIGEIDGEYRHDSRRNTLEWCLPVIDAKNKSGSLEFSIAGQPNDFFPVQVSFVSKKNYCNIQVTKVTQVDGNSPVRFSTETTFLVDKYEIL
UniProt Q9Y228: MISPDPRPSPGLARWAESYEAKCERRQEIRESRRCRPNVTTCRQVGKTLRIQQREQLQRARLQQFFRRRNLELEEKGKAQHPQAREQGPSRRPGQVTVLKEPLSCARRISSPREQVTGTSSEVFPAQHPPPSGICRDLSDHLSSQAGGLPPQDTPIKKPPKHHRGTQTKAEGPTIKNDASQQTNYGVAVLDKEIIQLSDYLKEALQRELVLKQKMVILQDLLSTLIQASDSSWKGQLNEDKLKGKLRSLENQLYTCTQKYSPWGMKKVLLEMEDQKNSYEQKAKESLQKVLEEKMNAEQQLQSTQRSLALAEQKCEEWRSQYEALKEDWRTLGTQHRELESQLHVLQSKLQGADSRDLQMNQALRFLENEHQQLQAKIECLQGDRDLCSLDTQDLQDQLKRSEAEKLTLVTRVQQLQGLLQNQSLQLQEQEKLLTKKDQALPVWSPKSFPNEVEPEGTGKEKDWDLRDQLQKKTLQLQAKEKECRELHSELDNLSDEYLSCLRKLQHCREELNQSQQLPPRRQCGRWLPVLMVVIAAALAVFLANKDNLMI
UniProt A8MWD9, whole entry, looked up: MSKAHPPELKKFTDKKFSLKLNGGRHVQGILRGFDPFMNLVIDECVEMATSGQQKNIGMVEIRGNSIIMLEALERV
UniProt P62308, whole entry, looked up: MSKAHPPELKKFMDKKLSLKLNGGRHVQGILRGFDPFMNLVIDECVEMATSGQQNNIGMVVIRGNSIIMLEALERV
UniProt A6NJ78: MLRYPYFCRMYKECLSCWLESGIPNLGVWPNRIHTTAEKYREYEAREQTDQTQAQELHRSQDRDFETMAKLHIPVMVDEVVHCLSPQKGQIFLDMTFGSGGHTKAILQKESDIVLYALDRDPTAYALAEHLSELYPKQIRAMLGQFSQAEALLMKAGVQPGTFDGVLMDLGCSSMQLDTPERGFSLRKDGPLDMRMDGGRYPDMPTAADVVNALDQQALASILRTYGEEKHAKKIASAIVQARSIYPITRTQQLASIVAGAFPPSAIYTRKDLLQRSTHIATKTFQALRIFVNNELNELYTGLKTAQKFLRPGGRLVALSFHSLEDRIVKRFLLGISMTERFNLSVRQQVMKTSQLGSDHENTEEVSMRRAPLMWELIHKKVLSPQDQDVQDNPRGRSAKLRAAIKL
UniProt P55854, whole entry: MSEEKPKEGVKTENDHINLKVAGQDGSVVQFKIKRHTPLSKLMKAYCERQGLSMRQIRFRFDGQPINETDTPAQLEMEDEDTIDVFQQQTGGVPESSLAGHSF
UniProt Q86X10: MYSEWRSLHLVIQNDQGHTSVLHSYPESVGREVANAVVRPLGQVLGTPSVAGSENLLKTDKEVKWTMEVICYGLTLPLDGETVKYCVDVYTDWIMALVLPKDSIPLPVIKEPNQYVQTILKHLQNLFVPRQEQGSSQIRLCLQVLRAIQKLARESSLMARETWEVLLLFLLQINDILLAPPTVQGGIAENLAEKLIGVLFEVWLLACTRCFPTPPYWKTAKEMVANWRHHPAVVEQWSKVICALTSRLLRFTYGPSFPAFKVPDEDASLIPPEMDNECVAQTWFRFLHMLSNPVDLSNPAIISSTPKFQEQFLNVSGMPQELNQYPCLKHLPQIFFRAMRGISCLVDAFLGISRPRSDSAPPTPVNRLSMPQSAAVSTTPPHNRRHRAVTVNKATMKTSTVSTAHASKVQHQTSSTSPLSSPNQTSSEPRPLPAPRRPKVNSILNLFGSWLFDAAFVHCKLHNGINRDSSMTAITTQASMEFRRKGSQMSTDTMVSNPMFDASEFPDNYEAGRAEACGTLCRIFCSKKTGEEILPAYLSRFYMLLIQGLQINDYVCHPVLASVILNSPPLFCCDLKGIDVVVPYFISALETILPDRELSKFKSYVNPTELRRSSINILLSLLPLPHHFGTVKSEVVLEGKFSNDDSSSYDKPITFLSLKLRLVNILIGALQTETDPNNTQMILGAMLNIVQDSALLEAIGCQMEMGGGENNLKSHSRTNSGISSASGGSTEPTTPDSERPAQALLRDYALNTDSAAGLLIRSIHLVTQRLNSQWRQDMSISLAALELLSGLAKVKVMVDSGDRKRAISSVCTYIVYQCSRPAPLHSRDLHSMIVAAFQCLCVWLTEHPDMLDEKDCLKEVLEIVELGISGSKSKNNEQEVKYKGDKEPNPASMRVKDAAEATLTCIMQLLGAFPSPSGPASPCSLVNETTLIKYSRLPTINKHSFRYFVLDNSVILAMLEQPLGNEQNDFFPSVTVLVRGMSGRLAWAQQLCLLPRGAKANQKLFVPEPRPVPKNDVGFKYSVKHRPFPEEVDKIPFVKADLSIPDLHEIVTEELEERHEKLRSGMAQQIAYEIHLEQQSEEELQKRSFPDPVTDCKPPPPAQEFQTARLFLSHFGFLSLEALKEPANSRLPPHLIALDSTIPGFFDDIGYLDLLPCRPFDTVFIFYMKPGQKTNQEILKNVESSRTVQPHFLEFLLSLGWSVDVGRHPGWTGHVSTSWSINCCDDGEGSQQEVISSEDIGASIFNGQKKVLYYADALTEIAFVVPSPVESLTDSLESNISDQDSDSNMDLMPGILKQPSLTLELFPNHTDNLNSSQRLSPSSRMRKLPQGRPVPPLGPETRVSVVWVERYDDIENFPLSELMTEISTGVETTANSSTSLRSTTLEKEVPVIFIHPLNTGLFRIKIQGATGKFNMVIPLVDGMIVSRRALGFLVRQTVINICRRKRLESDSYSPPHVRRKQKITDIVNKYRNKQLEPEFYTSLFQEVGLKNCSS
UniProt O43432, whole entry: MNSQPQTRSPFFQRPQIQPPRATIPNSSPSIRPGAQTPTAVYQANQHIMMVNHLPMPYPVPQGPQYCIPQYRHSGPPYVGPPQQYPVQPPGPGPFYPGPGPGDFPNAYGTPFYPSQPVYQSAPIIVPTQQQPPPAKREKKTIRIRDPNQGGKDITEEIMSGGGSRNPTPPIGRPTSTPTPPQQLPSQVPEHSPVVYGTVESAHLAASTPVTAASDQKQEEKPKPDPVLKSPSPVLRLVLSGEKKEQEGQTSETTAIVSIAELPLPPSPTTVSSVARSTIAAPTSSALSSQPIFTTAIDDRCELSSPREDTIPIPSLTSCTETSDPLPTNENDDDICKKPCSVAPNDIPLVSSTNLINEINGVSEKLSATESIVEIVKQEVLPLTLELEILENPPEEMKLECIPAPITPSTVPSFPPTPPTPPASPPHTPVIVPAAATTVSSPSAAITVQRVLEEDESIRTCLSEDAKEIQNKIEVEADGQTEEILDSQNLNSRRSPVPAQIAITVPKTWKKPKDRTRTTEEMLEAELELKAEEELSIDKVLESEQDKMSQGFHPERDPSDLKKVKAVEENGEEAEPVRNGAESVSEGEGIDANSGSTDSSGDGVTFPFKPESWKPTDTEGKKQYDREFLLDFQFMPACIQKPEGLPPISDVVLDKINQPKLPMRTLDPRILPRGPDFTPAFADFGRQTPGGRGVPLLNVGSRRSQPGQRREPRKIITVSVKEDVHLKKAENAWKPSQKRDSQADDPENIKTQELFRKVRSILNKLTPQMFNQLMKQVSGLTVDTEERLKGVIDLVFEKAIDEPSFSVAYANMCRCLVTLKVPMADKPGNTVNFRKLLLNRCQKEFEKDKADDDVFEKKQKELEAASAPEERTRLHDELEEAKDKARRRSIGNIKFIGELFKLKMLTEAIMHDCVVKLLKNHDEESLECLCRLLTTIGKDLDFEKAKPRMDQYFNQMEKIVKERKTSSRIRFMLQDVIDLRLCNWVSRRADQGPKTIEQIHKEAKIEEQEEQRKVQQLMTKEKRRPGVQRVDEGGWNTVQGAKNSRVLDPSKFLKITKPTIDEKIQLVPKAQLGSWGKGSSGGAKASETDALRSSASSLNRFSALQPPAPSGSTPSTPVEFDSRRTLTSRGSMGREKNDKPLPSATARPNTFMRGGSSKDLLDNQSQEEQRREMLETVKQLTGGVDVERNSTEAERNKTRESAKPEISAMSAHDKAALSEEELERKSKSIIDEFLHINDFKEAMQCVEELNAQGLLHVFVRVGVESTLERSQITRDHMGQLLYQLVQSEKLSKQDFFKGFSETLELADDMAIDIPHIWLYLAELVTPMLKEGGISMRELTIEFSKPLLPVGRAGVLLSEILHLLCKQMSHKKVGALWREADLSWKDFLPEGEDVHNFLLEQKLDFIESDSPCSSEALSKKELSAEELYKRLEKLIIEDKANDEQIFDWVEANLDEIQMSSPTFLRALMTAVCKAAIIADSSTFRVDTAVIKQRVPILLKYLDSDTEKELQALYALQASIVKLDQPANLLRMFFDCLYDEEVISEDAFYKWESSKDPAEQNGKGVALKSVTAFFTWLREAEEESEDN
UniProt P57075: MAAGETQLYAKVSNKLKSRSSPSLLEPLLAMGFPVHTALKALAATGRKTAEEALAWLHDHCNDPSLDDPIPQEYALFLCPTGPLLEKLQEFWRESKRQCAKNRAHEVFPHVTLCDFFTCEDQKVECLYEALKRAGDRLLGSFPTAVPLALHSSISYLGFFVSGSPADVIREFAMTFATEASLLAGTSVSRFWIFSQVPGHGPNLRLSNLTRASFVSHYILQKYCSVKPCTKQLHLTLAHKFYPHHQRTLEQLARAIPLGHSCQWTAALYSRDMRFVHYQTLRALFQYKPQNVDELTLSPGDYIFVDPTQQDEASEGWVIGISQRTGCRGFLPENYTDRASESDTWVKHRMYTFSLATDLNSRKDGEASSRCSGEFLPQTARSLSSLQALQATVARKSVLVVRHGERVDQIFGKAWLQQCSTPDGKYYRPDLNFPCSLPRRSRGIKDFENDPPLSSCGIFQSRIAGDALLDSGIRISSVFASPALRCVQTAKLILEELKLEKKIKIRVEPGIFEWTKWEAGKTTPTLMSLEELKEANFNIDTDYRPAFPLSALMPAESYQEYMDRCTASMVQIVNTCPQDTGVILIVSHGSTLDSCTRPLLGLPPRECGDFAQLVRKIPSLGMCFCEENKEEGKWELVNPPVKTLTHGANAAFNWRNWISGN
UniProt Q9Y6G5, whole entry: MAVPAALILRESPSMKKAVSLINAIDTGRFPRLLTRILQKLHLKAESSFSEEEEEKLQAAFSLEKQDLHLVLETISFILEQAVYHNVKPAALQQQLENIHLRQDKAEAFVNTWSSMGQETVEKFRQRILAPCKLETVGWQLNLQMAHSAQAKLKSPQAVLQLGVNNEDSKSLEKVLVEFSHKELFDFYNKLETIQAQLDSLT

Compound: Nc1ncnc2c1ncn2[C@@H]1O[C@H](COP(=O)(O)OP(=O)(O)OP(=O)(O)O)[C@@H](O)[C@H]1O [adenosine triphosphate]
Assay: NP40-soluble protein abundance relative to vehicle (solubility fold change) (ratio); higher = more soluble protein in presence of ATP
In short: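 Eight concentrations, 0.1 to 10 mM, were tested on Jurkat crude lysate for 10 min at room temperature and then 3 min at 37 °C, in three independent experiments. The lysate was solubilised with 0.8% NP40 and benzonase, ultracentrifuged, and the supernatant TMT-labelled for LC-MS/MS. Each value is the fold change against the detergent-processed vehicle in its own replicate, from vsn-normalised intensities.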

Target	NP40-soluble protein abundance (concentration: 1mM)	NP40-soluble protein abundance (concentration: 2mM)	NP40-soluble protein abundance (concentration: 4mM)	NP40-soluble protein abundance (concentration: 6mM)	NP40-soluble protein abundance (concentration: 8mM)	NP40-soluble protein abundance (concentration: 10mM)
C9JNZ0 and related entries (UniProt Q96IW7)	0.996 ± 0.15	1.02 ± 0.081	0.981 ± 0.086	0.926 ± 0.14	1.04 ± 0.15	1 ± 0.14
A9Z1X7 and related entries (UniProt Q8IYB3)	1.38 ± 0.1	1.43 ± 0.095	1.47 ± 0.11	1.56 ± 0.12	1.54 ± 0.099	1.57 ± 0.077
C9JF58 and related entries (UniProt Q8WVF1)	0.932 ± 0.028	0.976 ± 0.041	0.977 ± 0.019	1.01 ± 0.11	0.989 ± 0.062	0.978 ± 0.04
CCDC88B (UniProt A6NC98)	0.949 ± 0.039	0.968 ± 0.066	1 ± 0.071	0.96 ± 0.06	0.923 ± 0.082	0.918 ± 0.073
B9A018 and related entries (UniProt Q53GS9)	1.12 ± 0.12	1.16 ± 0.067	1.18 ± 0.052	1.18 ± 0.11	1.31 ± 0.029	1.31 ± 0.063
C9IZQ1 and related entries (UniProt P43307)	0.975 ± 0.091	1.01 ± 0.085	1.01 ± 0.045	1.01 ± 0.085	0.965 ± 0.02	0.949 ± 0.075
B0YIW6 and related entries (UniProt P48444)	1.02 ± 0.044	0.998 ± 0.025	0.984 ± 0.038	0.952 ± 0.035	0.999 ± 0.025	0.971 ± 0.031
B1AJU2 and related entries (UniProt Q9Y228)	0.95 ± 0.12	0.9 ± 0.094	0.937 ± 0.084	0.958 ± 0.17	0.963 ± 0.068	0.874 ± 0.15
A8MWD9 and related entries (UniProt P62308+A8MWD9)	1.27 ± 0.019	1.37 ± 0.015	1.44 ± 0.026	1.53 ± 0.03	1.59 ± 0.15	1.52 ± 0.083
UniProt A6NJ78	0.987 ± 0.015	0.955 ± 0.099	0.931 ± 0.055	0.96 ± 0.035	0.949 ± 0.071	0.922 ± 0.19
B9A054 and related entries (UniProt Q8TEB9)	0.969 ± 0.078	0.98777 ± 0.00047	0.959 ± 0.026	1.03 ± 0.044	0.962 ± 0.11	0.981 ± 0.076
A8MU27 and related entries (UniProt P55854)	0.998 ± 0.14	0.959 ± 0.098	0.942 ± 0.077	1.04 ± 0.12	0.913 ± 0.084	0.863 ± 0.24
A2A2Q9 and related entries (UniProt Q9Y312)	0.924 ± 0.056	0.961 ± 0.013	0.963 ± 0.033	0.982 ± 0.07	0.945 ± 0.03	0.959 ± 0.035
B5MCU0 and related entries (UniProt Q9Y2K5)	0.99 ± 0.059	1.01 ± 0.041	1.14 ± 0.018	1.14 ± 0.11	1.04 ± 0.03	1.01 ± 0.037
A6NHG4 and related entries (UniProt P30046+B5MC82+A6NHG4)	0.9318 ± 0.0072	1.031 ± 0.0049	0.9352 ± 0.0075	0.961 ± 0.07	0.9531 ± 0.0048	0.99438 ± 6.3e-05
C9JLT7 and related entries (UniProt Q8TBF5)	1.22 ± 0.37	0.919 ± 0.011	0.95 ± 0.021	1.02 ± 0.1	0.806 ± 0.028	0.902 ± 0.0092
A0A0G2JNW7|Q9Y666 (UniProt Q9Y666)	0.949 ± 0.03	0.965 ± 0.031	0.972 ± 0.029	0.96 ± 0.036	0.952 ± 0.026	0.981 ± 0.026
B4DDG0 and related entries (UniProt P41732+B4E171+B4DDG0)	0.924 ± 0.069	0.975 ± 0.046	0.944 ± 0.023	0.928 ± 0.068	0.944 ± 0.072	0.876 ± 0.072
A2A2F0 and related entries (UniProt Q86X10)	1 ± 0.067	1.02 ± 0.033	1.04 ± 0.027	0.997 ± 0.034	1.01 ± 0.042	1.01 ± 0.02
A0A0U1RQK7 (UniProt O43432)	1.04 ± 0.013	1.03 ± 0.032	1.03 ± 0.019	1.07 ± 0.019	1.024 ± 0.0091	1.04 ± 0.03
B5MC15 and related entries (UniProt Q13191)	1.06 ± 0.073	1.03 ± 0.033	1.04 ± 0.12	1 ± 0.081	0.998 ± 0.085	1.03 ± 0.034
B4DEM9 and related entries (UniProt Q9Y2S7)	1.06 ± 0.14	1.04 ± 0.13	1.08 ± 0.13	1.01 ± 0.18	1.06 ± 0.13	1.06 ± 0.11
D3YTA9 and related entries (UniProt H7BYZ3+F6U1T9+P63098+D3YTA9)	0.969 ± 0.037	0.951 ± 0.03	0.957 ± 0.012	1 ± 0.028	0.909 ± 0.018	0.897 ± 0.067
A0A0U1RRC9|P57075 and related entries (UniProt P57075)	0.973 ± 0.021	0.9511 ± 0.0072	0.9618 ± 0.0088	0.938 ± 0.029	0.977 ± 0.087	1.04 ± 0.06
A8MVZ6 and related entries (UniProt Q96G01)	0.975 ± 0.033	1.07 ± 0.086	0.9752 ± 0.0059	0.997 ± 0.042	0.949 ± 0.013	0.963 ± 0.026
C9JLV4 and related entries (UniProt O14727)	1.05 ± 0.083	1.05 ± 0.05	1.09 ± 0.072	0.986 ± 0.085	1.06 ± 0.051	1.02 ± 0.02
C9J2P0 and related entries (UniProt P51965)	0.926 ± 0.054	0.962 ± 0.04	0.913 ± 0.053	0.964 ± 0.046	0.938 ± 0.073	0.931 ± 0.078
A3KFL2 and related entries (UniProt Q13868)	1.1 ± 0.089	1.07 ± 0.089	1.16 ± 0.059	1.15 ± 0.12	1.25 ± 0.074	1.25 ± 0.11
B4DL54 and related entries (UniProt Q8WUH1)	1.02 ± 0.11	1 ± 0.083	0.982 ± 0.062	0.988 ± 0.12	1.02 ± 0.058	0.991 ± 0.052
D6RC04 and related entries (UniProt Q9Y6G5)	0.9692 ± 0.0062	0.964 ± 0.013	0.965 ± 0.013	0.925 ± 0.025	0.981 ± 0.069	0.955 ± 0.018

Part of the list above, reformatted.
Target,NP40-soluble protein abundance (concentration: 1mM),NP40-soluble protein abundance (concentration: 2mM),NP40-soluble protein abundance (concentration: 4mM),NP40-soluble protein abundance (concentration: 6mM),NP40-soluble protein abundance (concentration: 8mM),NP40-soluble protein abundance (concentration: 10mM)
D3YTA9 and related entries (UniProt H7BYZ3+F6U1T9+P63098+D3YTA9),0.969 ± 0.037,0.951 ± 0.03,0.957 ± 0.012,1 ± 0.028,0.909 ± 0.018,0.897 ± 0.067
A0A0U1RRC9|P57075 and related entries (UniProt P57075),0.973 ± 0.021,0.9511 ± 0.0072,0.9618 ± 0.0088,0.938 ± 0.029,0.977 ± 0.087,1.04 ± 0.06
A8MVZ6 and related entries (UniProt Q96G01),0.975 ± 0.033,1.07 ± 0.086,0.9752 ± 0.0059,0.997 ± 0.042,0.949 ± 0.013,0.963 ± 0.026
C9JLV4 and related entries (UniProt O14727),1.05 ± 0.083,1.05 ± 0.05,1.09 ± 0.072,0.986 ± 0.085,1.06 ± 0.051,1.02 ± 0.02
C9J2P0 and related entries (UniProt P51965),0.926 ± 0.054,0.962 ± 0.04,0.913 ± 0.053,0.964 ± 0.046,0.938 ± 0.073,0.931 ± 0.078
A3KFL2 and related entries (UniProt Q13868),1.1 ± 0.089,1.07 ± 0.089,1.16 ± 0.059,1.15 ± 0.12,1.25 ± 0.074,1.25 ± 0.11
B4DL54 and related entries (UniProt Q8WUH1),1.02 ± 0.11,1 ± 0.083,0.982 ± 0.062,0.988 ± 0.12,1.02 ± 0.058,0.991 ± 0.052
D6RC04 and related entries (UniProt Q9Y6G5),0.9692 ± 0.0062,0.964 ± 0.013,0.965 ± 0.013,0.925 ± 0.025,0.981 ± 0.069,0.955 ± 0.018
